Experimental data taken from PMC5388532.
These are yes or no findings as the source states them, for the method shown. For some assays here: In cells and extracts the contact can be indirect. Some binding calls cover weakened binding; strength is not graded here.

Sequences of proteins named here, by UniProt entry; tags and fusion partners are left off.
UniProt O88643: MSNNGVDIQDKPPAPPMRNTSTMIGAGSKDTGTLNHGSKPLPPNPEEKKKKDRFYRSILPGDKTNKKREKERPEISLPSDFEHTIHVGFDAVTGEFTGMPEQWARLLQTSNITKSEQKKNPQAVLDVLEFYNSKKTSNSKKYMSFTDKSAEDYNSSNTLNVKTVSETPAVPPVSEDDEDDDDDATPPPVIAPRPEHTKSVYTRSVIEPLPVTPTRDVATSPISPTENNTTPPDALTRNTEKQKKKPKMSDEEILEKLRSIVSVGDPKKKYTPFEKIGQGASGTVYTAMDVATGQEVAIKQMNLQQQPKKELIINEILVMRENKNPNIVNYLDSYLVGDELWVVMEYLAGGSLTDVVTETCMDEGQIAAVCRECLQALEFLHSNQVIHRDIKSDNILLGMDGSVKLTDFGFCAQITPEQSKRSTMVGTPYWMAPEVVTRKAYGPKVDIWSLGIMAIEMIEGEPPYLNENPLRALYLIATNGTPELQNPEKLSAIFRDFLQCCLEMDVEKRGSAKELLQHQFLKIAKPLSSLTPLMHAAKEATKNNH
UniProt P46414: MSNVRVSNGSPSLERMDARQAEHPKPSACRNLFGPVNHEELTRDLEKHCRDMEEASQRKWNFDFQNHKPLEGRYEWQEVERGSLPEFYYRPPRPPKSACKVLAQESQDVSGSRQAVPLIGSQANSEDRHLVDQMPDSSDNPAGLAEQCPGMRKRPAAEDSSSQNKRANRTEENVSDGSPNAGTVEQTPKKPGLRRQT
UniProt Q14247: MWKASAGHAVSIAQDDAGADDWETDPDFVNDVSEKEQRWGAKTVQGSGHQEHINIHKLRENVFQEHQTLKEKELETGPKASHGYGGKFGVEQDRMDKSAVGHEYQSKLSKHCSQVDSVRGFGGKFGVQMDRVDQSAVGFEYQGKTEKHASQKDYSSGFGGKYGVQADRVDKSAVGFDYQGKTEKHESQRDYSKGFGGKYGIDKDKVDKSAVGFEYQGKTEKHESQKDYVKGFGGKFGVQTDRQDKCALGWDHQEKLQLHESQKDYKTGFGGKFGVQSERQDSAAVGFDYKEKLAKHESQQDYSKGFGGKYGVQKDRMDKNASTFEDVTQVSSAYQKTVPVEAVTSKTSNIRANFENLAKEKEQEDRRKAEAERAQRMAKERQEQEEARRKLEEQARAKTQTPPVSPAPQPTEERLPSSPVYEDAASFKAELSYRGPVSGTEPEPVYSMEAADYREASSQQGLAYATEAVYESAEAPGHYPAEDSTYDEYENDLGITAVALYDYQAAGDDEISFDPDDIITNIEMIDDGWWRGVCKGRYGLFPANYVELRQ
UniProt Q13153: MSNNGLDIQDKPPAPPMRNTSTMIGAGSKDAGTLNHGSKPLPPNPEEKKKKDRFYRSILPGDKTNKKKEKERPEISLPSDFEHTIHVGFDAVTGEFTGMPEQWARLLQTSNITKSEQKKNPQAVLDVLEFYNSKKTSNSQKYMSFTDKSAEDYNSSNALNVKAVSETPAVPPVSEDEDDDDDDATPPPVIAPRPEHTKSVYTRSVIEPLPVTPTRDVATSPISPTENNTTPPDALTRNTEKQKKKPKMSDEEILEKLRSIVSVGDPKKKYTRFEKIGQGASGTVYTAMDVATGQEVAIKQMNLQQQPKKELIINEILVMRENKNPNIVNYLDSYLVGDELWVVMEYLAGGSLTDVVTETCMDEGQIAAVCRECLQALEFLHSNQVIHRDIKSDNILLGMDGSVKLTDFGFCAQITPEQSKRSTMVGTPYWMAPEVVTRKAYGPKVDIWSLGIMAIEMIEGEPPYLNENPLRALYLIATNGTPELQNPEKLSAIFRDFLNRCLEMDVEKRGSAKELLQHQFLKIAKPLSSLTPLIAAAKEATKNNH
UniProt P46527: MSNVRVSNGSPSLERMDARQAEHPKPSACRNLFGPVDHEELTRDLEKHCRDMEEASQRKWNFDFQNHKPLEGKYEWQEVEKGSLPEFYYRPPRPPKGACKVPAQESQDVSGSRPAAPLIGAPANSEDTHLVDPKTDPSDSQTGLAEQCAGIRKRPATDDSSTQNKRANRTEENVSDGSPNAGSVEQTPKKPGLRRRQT
UniProt Q60598: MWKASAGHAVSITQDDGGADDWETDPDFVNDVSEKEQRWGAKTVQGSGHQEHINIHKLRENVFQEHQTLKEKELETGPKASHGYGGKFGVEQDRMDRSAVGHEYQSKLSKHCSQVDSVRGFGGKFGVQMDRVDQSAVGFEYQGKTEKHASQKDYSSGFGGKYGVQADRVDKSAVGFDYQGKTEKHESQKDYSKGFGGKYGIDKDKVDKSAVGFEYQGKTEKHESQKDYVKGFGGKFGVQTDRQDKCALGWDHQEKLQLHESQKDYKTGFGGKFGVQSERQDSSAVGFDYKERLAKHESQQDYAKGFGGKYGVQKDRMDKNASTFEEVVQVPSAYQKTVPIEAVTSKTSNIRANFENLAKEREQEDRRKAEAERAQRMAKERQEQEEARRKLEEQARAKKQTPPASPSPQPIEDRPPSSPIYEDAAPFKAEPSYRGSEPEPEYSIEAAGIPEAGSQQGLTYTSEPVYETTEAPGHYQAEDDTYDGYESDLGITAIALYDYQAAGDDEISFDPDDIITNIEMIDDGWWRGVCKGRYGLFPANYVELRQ
UniProt P27361: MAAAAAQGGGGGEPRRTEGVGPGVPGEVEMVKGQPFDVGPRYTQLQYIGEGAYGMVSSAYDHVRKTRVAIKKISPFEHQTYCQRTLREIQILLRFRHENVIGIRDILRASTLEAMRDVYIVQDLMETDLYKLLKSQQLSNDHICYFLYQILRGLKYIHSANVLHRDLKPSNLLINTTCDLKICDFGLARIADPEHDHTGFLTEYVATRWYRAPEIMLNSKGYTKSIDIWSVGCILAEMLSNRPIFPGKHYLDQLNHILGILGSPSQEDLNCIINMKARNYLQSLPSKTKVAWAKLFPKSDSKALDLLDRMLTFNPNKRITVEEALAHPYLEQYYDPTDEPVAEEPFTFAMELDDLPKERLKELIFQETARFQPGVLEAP

Experiments:
[1] = biological target: PAK1 (endogenous, E6 MEFs) (mouse (endogenous in MEFs)) (UniProt O88643); assay: co-IP; endogenous PAK1 immunoprecipitated with rabbit anti-PAK1 (N-20) from HeLa cells transfected with empty vector or p27, from p27+/+ and p27-/- E6 MEFs, and from p27+/+ E6 MEFs starved and stimulated with growth medium; Cortactin detected by immunoblot
[2] = biological target: p27 (endogenous, E6 MEFs) (mouse (endogenous in MEFs)) (UniProt P46414); assay: co-IP; endogenous p27 immunoprecipitated with rabbit anti-p27 (C-19) from p27+/+ E6 MEFs (starved overnight, stimulated with growth medium) or HeLa cells (starved, stimulated with 100 ng/ml EGF) at the indicated times; Cortactin detected by immunoblot
[3] = biological target: Cortactin (endogenous, HeLa) (human (endogenous in HeLa)) (UniProt Q14247); assay: co-IP; endogenous Cortactin immunoprecipitated with rabbit anti-Cortactin (H191) from HeLa or E6 MEF lysates, beads alone as control; for Arp2, c-Src and ERK1 HeLa cells transfected with empty vector or p27; 4°C for 4 hr
[4] = biological target: PAK1 (endogenous, HeLa) (human (endogenous in HeLa)) (UniProt Q13153); assay: co-IP; endogenous PAK1 immunoprecipitated with rabbit anti-PAK1 (N-20) from HeLa cells transfected with empty vector or p27, from p27+/+ and p27-/- E6 MEFs, and from p27+/+ E6 MEFs starved and stimulated with growth medium; Cortactin detected by immunoblot
[5] = biological target: p27 (endogenous, HeLa) (human (endogenous in HeLa)) (UniProt P46527); assay: co-IP; endogenous p27 immunoprecipitated with rabbit anti-p27 (C-19) from p27+/+ E6 MEFs (starved overnight, stimulated with growth medium) or HeLa cells (starved, stimulated with 100 ng/ml EGF) at the indicated times; Cortactin detected by immunoblot
[6] = biological target: Cortactin (endogenous, E6 MEFs) (mouse (endogenous in MEFs)) (UniProt Q60598); assay: co-IP; endogenous Cortactin immunoprecipitated with rabbit anti-Cortactin (H191) from HeLa or E6 MEF lysates, beads alone as control; for Arp2, c-Src and ERK1 HeLa cells transfected with empty vector or p27; 4°C for 4 hr
[7] = biological target: Cortactin (on Protoarray protein array) (UniProt Q14247); assay: peptide or protein array; protein arrays (Protoarray, ThermoFisher Scientific) probed with recombinant human p27; proteomic screen; both purified

Cortactin (endogenous, E6 MEFs) (from UniProt Q60598 1-546)
binding [1]: binds | binding [2]: binds

p27 (endogenous, HeLa) (from UniProt P46527 1-198)
binding [3]: binds

Cortactin (endogenous, HeLa) (from UniProt Q14247 1-550)
binding [4]: binds | binding [5]: binds

ERK1 (endogenous, HeLa) (from UniProt P27361 1-379)
binding [3]: binds

p27 (endogenous, E6 MEFs) (from UniProt P46414 1-197)
binding [6]: binds

recombinant human p27 (from UniProt P46527 1-198)
binding [7]: binds
